B1: il10ra_site1_sap_32_mot_HHH_b1_03763_000000278_0001_22_38_H_._HHH_b1_07630_0001_0000200010_0000002_0_0001_af2pred_0001 (protein)
chain: SSSSDERAQELAELTARFARFLAENGDHEAARFLLEAAEQILKKENDEELLEELRELLEELSSSS
B2: il10ra_site1_normal_mot_HHH_b1_05672_af2_000000246_0001_1_19_H_._HHH_b2_03011_0001_0000100004_0000002_0 (protein)
chain: SSSDLEERVAELLFRALRLLAEGDEEEARELIEEAEHLARERNDEELLRYVEILLRFLEARSSSS
B3: il10ra_site1_normal_mot_1c3c3e46dde0d4e4be3ec3dd9add6289_0001_000000096_0001_34_50_H_._HHH_b1_01049_0001_0000100004_0000001_1 (protein)
chain: SSSSTEETHEVYRLSREALELIFEGDREEVEEILERLEEIAREFNNPFVEFVLRALERALGSSSS
B4: il10ra_site1_sap_19_mot_HHH_b1_05370_000000138_0001_1_16_H_._HHH_b2_08139_0001_0000300046_0000002_0_0001 (protein)
chain: SSSSSEERREAYELLRELAKVIHEGDEERAEELIERIRELLEEVNDRILLAVLEYLERHLNSSSS
B5: il10ra_site1_normal_mot_HHH_b2_08172_af2_000000094_0001_41_56_H_._d0d27a57e4302dd0dd5ebafbde421892_0001_1_af2_0001_0000100002_0000002_0 (protein)
chain: SEEEEVREVLEEVVPDPEVVRLLELAFKRQLEQGSPPEDVLRALLLLARAAGDPDAFRALELLLK
B6: il10ra_site1_normal_mot_HHH_b2_00441_000000147_0001_1_18_H_._HHH_b2_05319_0001_0000300022_0000001_0 (protein)
chain: SSSSSSEVERAVRRLLHAARHLDEEYRELALKFAEALAKSENNEELQELVREVKEELERSSSSSS
B7: il10ra_site1_normal_mot_6bb093d23f5042b6c551c363657da53b_0001_1_000000153_0001_51_65_H_._HHH_b1_04905_0001_0000400014_0000002_0_af2pred_0001 (protein)
chain: SSSSSSEEELEELIRQIEEALERNDPELVVRLLRELARFAIKLSDQEAIRFVLEVAKKLGSSSSS
B8: il10ra_site1_sap_15_mot_HHH_b2_07873_af2_000000172_0001_1_19_H_._HHH_b2_03857_0001_0000100009_0000001_0_0001_af2pred_0001 (protein)
chain: SSSSDDRERAARRLLRAIRRAIELGDEELAKLALRVLERLLELLGDEELERLFEELERLVNSSSS
B9: il10ra_site1_sap_16_mot_HHH_b2_00800_af2_000000047_0001_1_20_H_._HHH_b2_01966_af2_0001_0000300020_0000001_0_0001_af2pred_dldesign_0_af2pred (protein)
chain: SSSSSDPEKAKEVNELLEQAKKEKDPEKAAELLRKATRLAWELGDSKLIQKVKDVAEELLSSSSS
B10: il10ra_site1_normal_mot_HHH_b2_00475_000000107_0001_44_57_H_._HHH_b1_00662_0001_0000100003_0000002_0 (protein)
chain: SSSSSIEERIVQLLLRALRLHVEGNPEEAERLIEEAHELAEELGDPELERYIRILLHFVKSSSSS
B11: il10ra_site1_normal_mot_3af0db62db2b275566dae2e03bf881fa_0001_000000003_0001_37_50_H_._HHH_b2_02568_0001_0000200009_0000002_0 (protein)
chain: SSSSSTQERQTAEAALFFAKFIEDPEAARRSAEYALELAEEYGDEELAEEIKELLEELGSSSSSS
B12: il10ra_site1_sap_24_mot_HHH_b2_08265_af2_000000206_0001_22_38_H_._HHH_b2_06062_0002_0000200006_0000002_0_0001_af2pred_dldesign_0_af2pred (protein)
chain: SSSSDPEEDEKLIEEIEKLIEEGKTEEAVEKLRELTRRAWESGDSALLQKAVELAKKIEEESSSS
B13: il10ra_site1_sap_14_mot_HHH_b2_00277_af2_000000172_0001_1_17_H_._HHH_b1_05907_0001_0000200015_0000002_0_0001 (protein)
chain: SSSSSEREEELKELEERAKELLEEGDTREASRLLAEAVRLAIRLGDPETFQELWELVKRIASSSS
B14: il10ra_site1_sap_21_mot_HHH_b1_03763_000000209_0001_22_38_H_._HHH_b2_04689_af2_0001_0000200006_0000001_0_0001_af2pred_0001 (protein)
chain: SSSSSEYEERVLRLIVEAFRLALNGNPEEAEKVLEEAEKILEENNDERHLLTVRRLLELLGSSSS
B15: il10ra_site1_sap_19_mot_HHH_b2_03284_af2_000000155_0001_1_21_H_._HHH_b1_04583_0001_0000100015_0000001_0_0001 (protein)
chain: SSSSNEESAEKSVKHFLEAAKQIEDEEYVRMSFRFARWLAEVANDPELERLVEEVFEELQSSSSS
B16: il10ra_site1_normal_mot_HHH_b2_01205_000000166_0001_1_19_H_._HHH_b2_08156_0001_0000100001_0000001_0 (protein)
chain: SSSSSDARRVYELIRKAFELARRGNPEEARELMEEAEEIAEENNNLLLEFAIRFARRALESSSSS
B17: il10ra_site1_sap_14_mot_HHH_b1_07380_000000129_0001_1_20_H_._HHH_b1_04078_0001_0000100003_0000002_0_0001 (protein)
chain: SSSSSDEEEEEVEELIEQAKRIPDPRESSKILQRAVRIAIQISNEELLQEIWRLVKELASSSSSS
B18: il10ra_site1_sap_20_mot_HHH_b2_02497_000000141_0001_1_20_H_._HHH_b1_08287_0001_0000100024_0000001_0_0001_af2pred_0001 (protein)
chain: SSSDEDEKRARLAVRFIKWLLEQGDKRAVKHLLRALKELAKRLNDEELEEEIEELEELLEKLSSS
B19: il10ra_site1_sap_10_mot_0cd074c2d6d3de76f1399c5a775575d2_0001_1_af2_000000000_0001_16_30_H_._6bb093d23f5042b6c551c363657da53b_0001_1_0001_0000100004_0000001_0_0 … (protein)
chain: SSSSSSSDEVKARALTFFAKISDNPEAAKLSLEMALELARKLGDEELVEEIEELLEELSSSSSSS

Some of the results follow.

The assay addresses il10ra, Q13651. Nature of the assay: yeast display titration.
On to B1, for which the “apparent Kd” value is “inactive: no binding seen”. On to B2, for which the “apparent Kd” value is “inactive: no binding seen”.

With B3, the “apparent Kd” value was “inactive: no binding seen”.

On to B4, for which the “apparent Kd” value was “inactive: no binding seen”.

Take B5: the “apparent Kd” value was “inactive: no binding seen”. As for B6, the “apparent Kd” value is “inactive: no binding seen”.

As for B7, the “apparent Kd” value is “inactive: no binding seen”. Consider B8, for which the “apparent Kd” value is “inactive: no binding seen”. For B9, the “apparent Kd” value was “inactive: no binding seen”. Regarding B10, the “apparent Kd” value was “inactive: no binding seen”.

On to B11, for which the “apparent Kd” value was “inactive: no binding seen”. As for B12, the “apparent Kd” value is “inactive: no binding seen”. As for B13, the “apparent Kd” value was “inactive: no binding seen”. Take B14: the “apparent Kd” value was “inactive: no binding seen”. B15: the “apparent Kd” value is “inactive: no binding seen”. To B16 belongs “inactive: no binding seen”. In the case of B17, the “apparent Kd” value was “inactive: no binding seen”. For the molecule B18, the “apparent Kd” value was “inactive: no binding seen”.

In the case of B19, the “apparent Kd” value is “inactive: no binding seen”.

Source of the values: PMC10163288.
